Reference: PubChem BioAssay AID504444 (National Center for Advancing Translational Sciences (NCATS), 2011)
Hit rate of the full screen: of about 360,000 compounds, about 7,500 (2.1%) were called active. The shares of active, inactive and inconclusive entries below differ from those in the screen. Calls come from the whole dose curve; as a rule, active = well fitted inhibition curve with a large enough effect; inconclusive = small, poorly fitted or top-dose-only effect, or effect the other way; inactive = flat fitted curve, though single readings scatter. Where the call is inconclusive, the potency comes from a doubtful curve fit.

Experiment: Nrf2 qHTS screen for inhibitors; note: nearly all actives have a fitted effect of over 60% in size
Conditions: A549 ARE-Fluc reporter, luciferase luminescence, 18-24 h; activity change, negative = inhibition: at 46 µM (top of the series)
Summary of the method: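 Concentration-response testing used A549 ARE_Fluc cells at 5000 cells/well. Following an 18-24 h compound incubation, viability was read by fluorescence (Ex 405/Em 525) and luciferase output by luminescence.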
% is set by controls: 0 for no effect and ±100 for the full control effect; potency is the fitted concentration of half-maximal effect.

| SMILES | Potency | activity change, negative = inhibition |
| --- | --- | --- |
| CCOc1ccc(C(=O)NC2CCCCCCC2)cc1 | inconclusive: 9.2 µM [activator, partial curve] |  |
| COc1ccccc1NC(=O)CSc1nnc(-c2ccoc2C)o1 | inconclusive: 20.6 µM [activator, partial curve] |  |
| O=C(O)c1ccccc1C(=O)c1ccc(-c2ccccc2)cc1 | inconclusive: 29.1 µM [activator, single point] |  |
| CC(C)(C)NC(=O)CCN(/N=C/c1ccccc1F)C1=NS(=O)(=O)c2ccccc21 | inconclusive: 16.4 µM [falling, partial curve, poor fit] |  |
| CCCCNC(=O)C1=C(N)C(C(=O)Nc2ccc(C)c(S(=O)(=O)N3CCCCC3)c2)SC1=Nc1ccc(C)cc1C (configuration not stated) | inconclusive: 29.1 µM [falling, single point] |  |
| COc1ccc(C2=NN(C(=O)CSc3ncccn3)C(c3ccc(C)cc3)C2)cc1 (configuration not stated) | inconclusive: 29.1 µM [falling, single point] |  |
| O=C1CC(/C=C/c2ccccc2)=Nc2ccccc2N1 | inconclusive: 13 µM [activator, partial curve, poor fit] |  |
| C#CCn1c(=NC(=O)c2cc(Cl)sc2Cl)sc2cc(S(N)(=O)=O)ccc21 | inconclusive: 3.66 µM [falling, full curve, poor fit] |  |
| CCCc1nc(SCC(=O)Nc2nnc(SCC)s2)c2c(=O)n(C)c(=O)n(C)c2n1 | inconclusive: 2.59 µM [falling, full curve, poor fit] |  |
| COc1cc(/C=C(\C#N)c2nc3ccccc3o2)ccc1O |  | inactive: -10.7% |
| O=C(CNc1ccccc1)N/N=C/c1ccc([N+](=O)[O-])o1 | active: 18.4 µM |  |
| COC(=O)c1cccc(Nc2nc(-c3cccnc3)nc3ccccc23)c1 | inconclusive: 2.06 µM [activator, partial curve, poor fit] |  |
| Cc1ccccc1N=C/C=C1/C=C(c2ccccc2)OC(C)(C)O1 |  | inactive: -4.71% |
| Cc1ccc(C(=O)Nc2cccnc2)cc1S(=O)(=O)N1CCOCC1 | inconclusive: 6.51 µM [falling, partial curve] |  |
| Cc1oc2c(c1C(=O)O)C(=O)c1ccccc1C2=O | inconclusive: 23.1 µM [falling, single point] |  |
| Cc1ccc(N2C(=O)CSC23C(=O)N(CC(=O)Nc2ccc(C(C)C)cc2)c2ccccc23)cc1C (configuration not stated) | inconclusive: 20.6 µM [activator, single point] |  |
| CCOc1ccc(CCNC(=O)CCc2cn(Cc3ccc(F)cc3)c3ccccc23)cc1 |  | inactive: -21.6% |
| O=C(Nc1cccnc1Cl)c1cc(-c2cccc(Cl)c2)on1 | inconclusive: 2.06 µM [activator, partial curve] |  |
| Cc1nn2c(=O)cc(COC(=O)c3c(F)cccc3Cl)nc2s1 | inconclusive: 4.11 µM [activator, full curve] |  |
| O=C(NC(c1ccccc1)C(Cl)(Cl)Cl)c1ccccc1 (configuration not stated) | inconclusive: 0.13 µM [falling, full curve, poor fit] |  |
| CCOC(=O)C1=CN(C)C=C(C(=O)OCC)C1c1ccsc1 |  | inactive: 0.621% |

| SMILES | Potency | activity change, negative = inhibition |
| --- | --- | --- |
| COc1ccc(S(=O)(=O)N(CCc2ccccc2)CC(=O)NCCCO)cc1 | inconclusive: 32.6 µM [falling, single point] |  |
| CC(=O)c1ccc(OCc2cc(C(=O)N(C)CCOc3ccc(C)cc3)no2)cc1 | inconclusive: 3.66 µM [activator, single point] |  |
| CCOc1ccc(NC(=O)Cn2cc(C(=O)c3ccco3)c3ccccc32)cc1 | inconclusive: 2.06 µM [falling, partial curve, poor fit] |  |
| CSc1nc2c(c(=O)n1Cc1ccccc1)SC(C)C2 (configuration not stated) | inconclusive: 32.6 µM [falling, single point] |  |
| Cc1ccc(Cl)cc1NC(=O)C(Cc1ccccc1)N1C(=O)C2C3CCC(C3)C2C1=O (configuration not stated) | inconclusive: 32.6 µM [falling, partial curve, poor fit] |  |
| COc1ccc(NC(=S)NC(=O)c2ccc3c(c2)OCCO3)cc1 |  | inactive: 17.6% |
| COC(=O)c1cc(S(=O)(=O)NCCc2ccc(Cl)cc2)c[nH]1 | inconclusive: 5.17 µM [falling, partial curve, poor fit] |  |
| COc1ccc(-n2nnnc2SCC(=O)NCCc2ccccc2)cc1OC | inconclusive: 29.1 µM [falling, single point] |  |
| C=CC[C@@H](CC(=O)N(CCO)Cc1ccccc1)C(=O)NCCOC(=O)[C@H](CC=C)CC(=O)OC(C)(C)C | inconclusive: 4.61 µM [activator, full curve, poor fit] |  |
| Cc1cc(C)c2cc(CN(CCO)Cc3nnnn3Cc3ccc(F)cc3)c(=O)[nH]c2c1 |  | inactive: 11.5% |
| CC1C(c2ccccc2)N(C)C(c2ccccc2)CC1(O)c1ccccc1 (configuration not stated) | inconclusive: 25.9 µM [falling, single point] |  |
| COC(=O)c1[nH]c2ccccc2c1NC(=O)CN1CCN(C(=O)c2ccco2)CC1 | inconclusive: 29.1 µM [falling, single point] |  |
| COc1ccc(OC)c(CCNC(=O)C2CCN(c3nnc(-n4cccc4)s3)CC2)c1 | inconclusive: 29.1 µM [falling, partial curve, poor fit] |  |
| COc1ccc(NS(=O)(=O)c2ccc3oc(SC)nc3c2)cc1 | active: 20.6 µM |  |
| O=C(N/N=C1\CCc2ccccc21)c1ccncc1 | inconclusive: 9.2 µM [activator, partial curve] |  |
| c1ccc(Cc2nnc(-c3ccccc3)o2)cc1 | inconclusive: 6.51 µM [activator, full curve, poor fit] |  |
| O=C(NNC(=O)c1ccc(-c2ccccc2)cc1)Nc1ccccc1 |  | inactive: 26.6% |
| CCOc1ccccc1CNc1ncnc2ccc(-c3c(C)noc3C)cc12 | active: 16.4 µM |  |
| O=C(COC(=O)c1ccc([N+](=O)[O-])o1)NC12CC3CC(CC(C3)C1)C2 | inconclusive: 25.9 µM [activator, partial curve, poor fit] |  |
| COc1ccc(Cl)cc1NC(=O)CCc1nnc2ccc(N3CCN(C)CC3)nn12 | inconclusive: 16.4 µM [falling, partial curve, poor fit] |  |
| C[C@H]1CN([C@@H](C)CO)C(=O)c2cccc(NC(=O)Nc3ccc(C(F)(F)F)cc3)c2O[C@@H]1CN(C)C(=O)Nc1ccc(F)cc1 | active: 16.4 µM |  |

| SMILES | Potency | activity change, negative = inhibition |
| --- | --- | --- |
| O=C(CCN1C(=O)/C(=C/c2ccccc2F)SC1=S)NCCc1ccc(O)cc1 | inconclusive: 29.1 µM [falling, single point] |  |
| Cc1cc2cc(CNC(=O)Nc3ccccc3)ccc2n1C | inconclusive: 5.8 µM [activator, partial curve, poor fit] |  |
| CCc1ccc(OCC(=O)N/N=C(\C)c2ccc(O)cc2O)cc1 | inconclusive: 29.1 µM [falling, single point] |  |
| COc1cc2c(=O)n(CCc3ccccc3)c(=O)n(CC(=O)Nc3ccccc3)c2cc1OC | inconclusive: 6.51 µM [activator, single point] |  |
| COC(=O)c1ccc(-c2nc3ccccc3[nH]2)cc1 | inconclusive: 0.259 µM [activator, full curve, poor fit] |  |
| CC(=O)c1ccc(/C=C/c2nc3ccccc3n2C)o1 | inconclusive: 20.6 µM [activator, partial curve] |  |
| O=C(C1CCC1)N1CCc2cc(S(=O)(=O)NCc3ccc(F)cc3)ccc21 |  | inactive: -16% |
| COc1ccc(C)cc1NC(=O)N1CCCn2nc(C)cc21 | inconclusive: 0.0517 µM [falling, full curve, poor fit] |  |
| CCCn1c2ccccc2c2cnn(CC(=O)NCCCN3C(C)CCCC3C)c(=O)c21 (configuration not stated) | inconclusive: 29.1 µM [falling, single point] |  |
| CCOc1ccc(CN(C)C(=O)c2cc3ccccc3o2)cc1OC | inconclusive: 16.4 µM [activator, partial curve, poor fit] |  |
| COc1cc(OC)c(S(=O)(=O)Nc2ccccc2N2CCOCC2)cc1NC(C)=O | inconclusive: 23.1 µM [falling, partial curve, poor fit] |  |
| Cc1ccc(C)c(CN2C(=O)c3ccccc3S(=O)(=O)c3ccc(C(=O)N4CCCCC4)cc32)c1 | inconclusive: 29.1 µM [falling, single point] |  |
| CC(C)Cn1c(N)c(C(=O)COC(=O)CCc2nc3ccccc3s2)c(=O)n(C)c1=O | inconclusive: 23.1 µM [falling, partial curve, poor fit] |  |
| CC(=O)[C@H]1CC[C@H]2[C@@H]3C=CC4=CC(=O)CC[C@@]4(C)[C@@H]3CC[C@]12C | inconclusive: 9.2 µM [falling, partial curve, poor fit] |  |
| CCCn1c(SCC(=O)N2N=C3/C(=C/c4ccc(OC)cc4)CCCC3C2c2ccc(OC)cc2)n[nH]c1=O (configuration not stated) | inconclusive: 29.1 µM [falling, single point] |  |
| COc1ccccc1NC(=O)c1c(NC(=O)CCC(=O)O)sc2c1CCCCC2 | inconclusive: 29.1 µM [falling, single point] |  |
| Cc1ccc(-c2csc(NCCc3nc4cc(Cl)c(Cl)cc4n3CCOCCO)n2)cc1 | inconclusive: 29.1 µM [falling, single point] |  |
| O=C(Nc1ccc2nc3n(c(=O)c2c1)CCCCC3)C(=O)N1CCN(c2ccccc2F)CC1 | inconclusive: 18.4 µM [activator, single point] |  |
| Cc1cccn2cc(-c3ccc(F)cc3)cc12 | inconclusive: 16.4 µM [activator, single point] |  |
| CC1CCN(CC(=O)Nc2cccc([N+](=O)[O-])c2)CC1 | inconclusive: 0.0041 µM [falling, full curve, poor fit] |  |

Looked up by structure from above, two records:

| SMILES | Potency | activity change, negative = inhibition |
| --- | --- | --- |
| O=C(CCN1C(=O)/C(=C/c2ccccc2F)SC1=S)NCCc1ccc(O)cc1 | inconclusive: 29.1 µM [falling, single point] |  |
| Cc1cccn2cc(-c3ccc(F)cc3)cc12 | inconclusive: 16.4 µM [activator, single point] |  |
